Results are given in words; binding and its absence hold for the method and conditions named. Sequences can lack the tags named with a protein.
Columns and labels:
Assay in all cases: two-hybrid; AD-GW2 (pGAD424) and BD fusions (pGBT8) co-transformed into yeast AH109; selected on -Leu/-Trp, growth tested on -Leu/-Trp/-His with 5 mM 3-AT
EXPA2 (Gal4 BD fusion) = EXPA2 (Gal4 BD fusion) (UniProt Q40636)
[1] = molecular target: EXPA4 (Gal4 BD fusion) (rice) (UniProt Q0DHB7)
EXPB11 (Gal4 BD fusion) = molecular target: T1, EXPB11 (Gal4 BD fusion) (UniProt Q6H676)
T1 sequence: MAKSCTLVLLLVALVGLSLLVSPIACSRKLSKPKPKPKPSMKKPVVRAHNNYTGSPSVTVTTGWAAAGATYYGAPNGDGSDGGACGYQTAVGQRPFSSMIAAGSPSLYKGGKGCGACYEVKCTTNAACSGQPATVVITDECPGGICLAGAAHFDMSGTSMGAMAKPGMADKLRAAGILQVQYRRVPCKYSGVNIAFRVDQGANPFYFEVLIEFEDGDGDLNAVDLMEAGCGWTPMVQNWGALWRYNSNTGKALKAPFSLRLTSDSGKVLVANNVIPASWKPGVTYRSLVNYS

Chains of the proteins cited; added tags and fusions are not shown.
UniProt Q40636: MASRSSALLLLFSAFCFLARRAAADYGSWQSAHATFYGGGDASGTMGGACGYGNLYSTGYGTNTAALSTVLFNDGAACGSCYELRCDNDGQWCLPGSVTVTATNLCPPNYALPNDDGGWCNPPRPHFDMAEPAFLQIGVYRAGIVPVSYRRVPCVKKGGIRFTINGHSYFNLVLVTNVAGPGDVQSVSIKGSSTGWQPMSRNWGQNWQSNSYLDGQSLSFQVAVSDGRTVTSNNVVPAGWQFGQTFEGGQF
UniProt Q0DHB7: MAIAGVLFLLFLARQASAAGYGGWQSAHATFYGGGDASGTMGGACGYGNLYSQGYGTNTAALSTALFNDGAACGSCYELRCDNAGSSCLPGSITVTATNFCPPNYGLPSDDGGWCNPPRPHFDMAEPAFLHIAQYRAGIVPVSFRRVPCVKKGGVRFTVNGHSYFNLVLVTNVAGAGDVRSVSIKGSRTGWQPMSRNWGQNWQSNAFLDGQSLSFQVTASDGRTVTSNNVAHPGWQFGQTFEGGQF
UniProt Q7XT40: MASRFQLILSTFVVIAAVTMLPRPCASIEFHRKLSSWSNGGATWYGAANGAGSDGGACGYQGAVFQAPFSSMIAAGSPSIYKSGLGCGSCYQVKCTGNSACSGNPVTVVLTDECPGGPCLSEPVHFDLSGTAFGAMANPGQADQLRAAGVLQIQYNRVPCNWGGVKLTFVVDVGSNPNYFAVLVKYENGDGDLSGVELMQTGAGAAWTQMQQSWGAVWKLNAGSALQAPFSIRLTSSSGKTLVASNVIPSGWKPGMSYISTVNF
UniProt Q7XT39: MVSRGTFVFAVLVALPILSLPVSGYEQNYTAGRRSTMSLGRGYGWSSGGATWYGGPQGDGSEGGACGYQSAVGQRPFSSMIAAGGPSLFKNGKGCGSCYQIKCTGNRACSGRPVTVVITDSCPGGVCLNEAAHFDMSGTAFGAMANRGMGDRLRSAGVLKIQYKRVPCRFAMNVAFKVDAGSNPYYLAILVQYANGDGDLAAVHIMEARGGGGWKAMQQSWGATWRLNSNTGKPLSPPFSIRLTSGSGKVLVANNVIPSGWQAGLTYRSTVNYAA

EXPB15 (Gal4 BD fusion) = EXPB15 (Gal4 BD fusion) (UniProt Q7XT40)
EXPB5 (Gal4 BD fusion) = EXPB5 (Gal4 BD fusion) (UniProt Q7XT39)

Measured: binding

B1: AD-GW2 (enzyme, UniProt B9F4Q9 1-425)
chain: MGNRIGGRRKAGVEERYTRPQGLYEHRDIDQKKLRKLILEAKLAPCYMGADDAAAAADLEECPICFLYYPSLNRSKCCSKGICTECFLQMKPTHTAQPTQCPFCKTPSYAVEYRGVKTKEERSIEQFEEQKVIEAQMRMRQQALQDEEDKMKRKQNRCSSSRTITPTKEVEYRDICSTSFSVPSYRCAEQETECCSSEPSCSAQTSMRPFHSRHNRDDNIDMNIEDMMVMEAIWRSIQEQGSIGNPVCGNFMPVTEPSPRERQPFVPAASLEIPHGGGFSCAVAAMAEHQPPSMDFSYMAGSSAFPVFDMFRRPCNIAGGSMCNLESSPESWSGIAPSCSREVVREEGECSADHWSEGAEAGTSYAGSDIVADAGTMPQLPFAENFAMAPSHFRPESIEEQMMFSMALSLADGHGRTHSQGLAWL
no binding: all assays above
